Assay [1] deals with T1, p120/σ-catenin (endogenous, mouse) (mouse (endogenous in sciatic nerve and Schwann cells)) (UniProt P30999).
T1 sequence: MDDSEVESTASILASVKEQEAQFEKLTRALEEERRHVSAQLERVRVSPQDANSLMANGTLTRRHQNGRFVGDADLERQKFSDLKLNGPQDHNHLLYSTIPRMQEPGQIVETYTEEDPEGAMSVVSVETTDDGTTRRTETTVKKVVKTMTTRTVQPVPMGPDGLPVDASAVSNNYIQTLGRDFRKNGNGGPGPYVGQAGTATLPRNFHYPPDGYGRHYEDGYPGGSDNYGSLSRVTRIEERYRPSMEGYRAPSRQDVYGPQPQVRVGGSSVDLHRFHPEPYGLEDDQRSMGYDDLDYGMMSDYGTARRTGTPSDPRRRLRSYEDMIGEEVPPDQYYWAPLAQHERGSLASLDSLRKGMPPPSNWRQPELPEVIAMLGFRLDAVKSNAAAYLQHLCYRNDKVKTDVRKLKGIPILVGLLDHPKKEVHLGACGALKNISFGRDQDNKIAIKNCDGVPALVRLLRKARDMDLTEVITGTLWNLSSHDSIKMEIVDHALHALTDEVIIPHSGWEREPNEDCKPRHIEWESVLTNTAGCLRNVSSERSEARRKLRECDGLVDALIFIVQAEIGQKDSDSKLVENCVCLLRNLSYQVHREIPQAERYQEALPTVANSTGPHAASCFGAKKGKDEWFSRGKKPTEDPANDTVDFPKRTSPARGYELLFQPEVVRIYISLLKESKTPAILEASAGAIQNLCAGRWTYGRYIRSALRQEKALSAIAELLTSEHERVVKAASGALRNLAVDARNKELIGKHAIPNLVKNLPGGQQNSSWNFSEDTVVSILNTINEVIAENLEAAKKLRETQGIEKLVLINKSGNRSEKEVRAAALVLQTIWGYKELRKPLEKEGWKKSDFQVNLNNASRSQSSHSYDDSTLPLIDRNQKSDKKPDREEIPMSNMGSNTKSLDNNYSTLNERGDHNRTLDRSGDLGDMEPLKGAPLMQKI
In words: co-IP; endogenous proteins in sciatic nerve lysates of Pmp22+/+ mice (P10, P15, 3 and 6 months old, by panel); IP with anti-E-cadherin, anti-p120/σ-catenin or anti-β-catenin antibody, control IgG; overnight at 4°C, protein G agarose beads; immunoblot. (In general: A western blot detects proteins with antibodies after separation by electrophoresis.)

By UniProt entry, the sequences of proteins in these tests, tags left out. Where a name states a change or a piece, a line headed by the entry shows the natural chain unless it says otherwise.
UniProt P12830: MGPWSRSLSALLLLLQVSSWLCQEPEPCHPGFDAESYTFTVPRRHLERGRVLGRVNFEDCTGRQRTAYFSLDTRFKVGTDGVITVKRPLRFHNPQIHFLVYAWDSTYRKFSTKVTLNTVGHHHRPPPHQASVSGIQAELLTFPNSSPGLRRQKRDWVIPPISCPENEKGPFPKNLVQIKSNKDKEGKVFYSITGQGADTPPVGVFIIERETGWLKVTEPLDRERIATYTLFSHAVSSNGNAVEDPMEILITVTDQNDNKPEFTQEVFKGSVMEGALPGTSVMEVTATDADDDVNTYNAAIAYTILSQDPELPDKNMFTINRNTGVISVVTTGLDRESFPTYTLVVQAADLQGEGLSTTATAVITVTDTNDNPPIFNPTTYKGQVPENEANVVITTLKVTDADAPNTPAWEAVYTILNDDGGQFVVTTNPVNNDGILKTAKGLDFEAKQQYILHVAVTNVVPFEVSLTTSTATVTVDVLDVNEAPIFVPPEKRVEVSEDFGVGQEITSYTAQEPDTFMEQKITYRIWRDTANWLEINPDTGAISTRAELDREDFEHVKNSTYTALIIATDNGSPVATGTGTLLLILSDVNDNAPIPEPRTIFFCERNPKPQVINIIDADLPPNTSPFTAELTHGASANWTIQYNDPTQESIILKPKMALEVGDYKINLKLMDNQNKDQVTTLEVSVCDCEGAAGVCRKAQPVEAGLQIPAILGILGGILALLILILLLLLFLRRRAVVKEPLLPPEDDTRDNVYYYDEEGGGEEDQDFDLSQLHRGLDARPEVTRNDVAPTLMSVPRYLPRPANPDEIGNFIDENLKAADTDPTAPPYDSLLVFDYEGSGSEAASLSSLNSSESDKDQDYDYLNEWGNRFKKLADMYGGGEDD

The target in assay [2] is GFP-tagged E-cadherin mutant E+T (intracellular domain deleted) (UniProt P12830). Kind of assay: co-IP; HA-tagged PMP22 co-expressed with GFP-tagged E-cadherin or its mutants in HEK293a cells; lysates immunoprecipitated and blotted with GFP or HA antibodies; primary antibody overnight at 4°C, protein G agarose beads.
For assay [3], the target named is GFP-tagged wild-type E-cadherin (UniProt P12830). The description is as above.
Assay [4] concerns the target E-cadherin (endogenous, mouse) (mouse (endogenous in sciatic nerve and Schwann cells)). Kind of assay: co-IP; endogenous proteins in sciatic nerve lysates of Pmp22+/+ mice (P10, P15, 3 and 6 months old, by panel); IP with anti-E-cadherin, anti-p120/σ-catenin or anti-β-catenin antibody, control IgG; overnight at 4°C, protein G agarose beads; immunoblot.
Assay [5] has the same target. Kind of assay: co-IP; endogenous proteins in sciatic nerve lysates of 3-month-old (adult) Pmp22+/+ mice; IP with anti-E-cadherin antibody, blot with anti-PMP22.

No constants are given. Whether binding was seen depends on the method and setting. In cells and extracts the contact can be indirect. For part of these data: Binding calls can cover weak binding; strength is not graded here. For part of these data: Where a sequence is shown, tags or fusion partners need not be part of it.

Consider E-cadherin (endogenous, mouse), for which the binding result in assay [1] is on record as “binds”.

B1: Human HA-tagged PMP22 (protein, UniProt Q01453 1-160)
chain: MLLLLLSIIVLHVAVLVLLFVSTIVSQWIVGNGHATDLWQNCSTSSSGNVHHCFSSSPNEWLQSVQATMILSIIFSILSLFLFFCQLFTLTKGGRFYITGIFQILAGLCVMSAAAIYTVRHPEWHLNSDYSYGFAYILAWVAFPLALLSGVIYVILRKRE
For B1, the binding result in assay [2] and in assay [3] was “binds” each time.

B2: p120/σ-catenin (endogenous, mouse) (protein, UniProt P30999 1-938)
chain: T1 sequence
B2: the binding entry in assay [4] is reported as “binds”.

B3: PMP22 (endogenous, mouse sciatic nerve) (protein, UniProt P16646 1-161)
chain: MLLLLLGILFLHIAVLVLLFVSTIVSQWLVGNGHTTDLWQNCTTSALGAVQHCYSSSVSEWLQSVQATMILSVIFSVLALFLFFCQLFTLTKGGRFYITGFFQILAGLCVMSAAAIYTVRHSEWHVNTDYSYGFAYILAWVAFPLALLSGIIYVILRKREL
Consider B3, for which the binding entry in assay [5] was “no binding (only in 3-month-old (adult) nerves)”; in assay [4], “binds”.
